No constants are given. Whether binding was seen depends on the method and setting. A result given as binding can be weak or reduced; the word gives no strength. Sequences can lack the tags named with a protein.
Legend:
[1] = target: T1, Recombinant His-tagged secretagogin (SCGN) (UniProt Q91WD9); assay: near-UV circular dichroism
T1 sequence: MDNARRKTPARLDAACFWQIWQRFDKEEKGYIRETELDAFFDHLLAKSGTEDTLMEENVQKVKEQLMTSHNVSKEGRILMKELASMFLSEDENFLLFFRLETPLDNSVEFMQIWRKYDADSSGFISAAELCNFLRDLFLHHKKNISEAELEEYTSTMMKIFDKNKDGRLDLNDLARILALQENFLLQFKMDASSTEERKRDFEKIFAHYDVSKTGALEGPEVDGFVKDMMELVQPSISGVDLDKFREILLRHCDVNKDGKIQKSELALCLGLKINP

[2] = target: T1, Recombinant His-tagged secretagogin (SCGN); assay: near-UV circular dichroism; remark: listed apart in the source
[3] = target: T1, Recombinant His-tagged secretagogin (SCGN); assay: other fluorescence titration
[4] = target: T1, Recombinant His-tagged secretagogin (SCGN); assay: other fluorescence titration; remark: listed apart in the source
[5] = target: Insulin (purified, used in vitro); assay: SEC
[6] = target: Insulin (purified, used in vitro); assay: far-Western, overlay or dot blot
[7] = target: Insulin (purified, used in vitro); assay: far-Western, overlay or dot blot; remark: listed apart in the source

Measured: binding

Insulin (purified, used in vitro)
binds: [1] | [2] | [3] | [4]

B1: Recombinant His-tagged secretagogin (SCGN) (protein, UniProt Q91WD9 1-276)
chain: MDNARRKTPARLDAACFWQIWQRFDKEEKGYIRETELDAFFDHLLAKSGTEDTLMEENVQKVKEQLMTSHNVSKEGRILMKELASMFLSEDENFLLFFRLETPLDNSVEFMQIWRKYDADSSGFISAAELCNFLRDLFLHHKKNISEAELEEYTSTMMKIFDKNKDGRLDLNDLARILALQENFLLQFKMDASSTEERKRDFEKIFAHYDVSKTGALEGPEVDGFVKDMMELVQPSISGVDLDKFREILLRHCDVNKDGKIQKSELALCLGLKINP
binds: [5] | [6] | [7]

From doi:10.1101/189324
